# Source: PubChem BioAssay AID445 (National Center for Advancing Translational Sciences (NCATS), 2006)
# This is one part of the list. Further columns of the screen follow, without active or inactive calls. Most of these compounds were active or inconclusive in the main read-out, so they are no random draw. The note in brackets gives the kind of curve behind each potency; many fits are weak.
# Experiment: IkB Signaling
# Conditions: ABC-DLBCL IkBa-CBG/CBR dual luciferase ratio (green luciferase fused to IkBa over red control in OCI-Ly3 lymphoma cells), 4 h; measured here: control luc red channel unless noted
# Method in brief: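 Luminescence ratio of IκBα-fused green versus native red beetle luciferase in OCI-Ly3 cells, 4 h post-doxycycline with compound; red signal alone, scaled from basal (0%) to zero light (-100%), flagged nonspecific or cytotoxic effects.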
row,SMILES,AC50
1,CCOC(=O)C1CCN(C(=O)c2ccc3c(=O)n4nc(Nc5cc(C)ccc5C)sc4nc3c2)CC1,"39.8 µM [falling, single point]"
2,CCOc1cccc(C2c3c(-c4cc(C)ccc4O)n[nH]c3C(=O)N2Cc2ccco2)c1 (stereo unspecified),"31.6 µM [falling, single point]"
3,CC(C)(C)NC(=O)C(c1ccco1)N(C(=O)Cn1nnc(-c2ccc(F)cc2)n1)c1ccccc1F (stereo unspecified),"12.6 µM [falling, partial curve]"
4,CCn1cc(C(=O)N2CCN(c3ccc(C(C)=O)cc3)CC2)c2cc(OC)c(OC)cc2c1=O,"0.794 µM [rising, full curve, poor fit]"
5,Cc1cc(NC(=O)c2c(F)c(F)c(F)c(F)c2F)no1,"20 µM [falling, partial curve]"
6,Cc1ccc(NC(=O)Cn2c(=O)oc3cc(S(=O)(=O)NCc4ccccc4)ccc32)cc1,"12.6 µM [falling, partial curve]"
7,CCOc1ccc(CCNC(=O)CN2N=C(c3ccccc3)CCC2=O)cc1OCC,"3.98 µM [rising, full curve]"
8,Cc1cccc(N2CCN(c3cccc(C)c3)C2c2cccnc2)c1,"10 µM [falling, partial curve]"
9,Cc1ccc2nc(N(Cc3cccnc3)C(=O)CCS(=O)(=O)c3ccccc3)sc2c1,"39.8 µM [falling, single point]"
10,Cc1cc2nc(-c3ccc(NC(=O)C(C)C)cc3)oc2cc1C,"0.398 µM [rising, partial curve, poor fit]"
11,Cc1ccc(CN(Cc2ccco2)C(=O)COc2ccc(C(C)C)cc2)cc1,"6.31 µM [falling, full curve]"
12,CCOC(=O)c1cc(C)n(CC2CCC(C(=O)Nc3ccc(C)c(F)c3)CC2)c1C (stereo unspecified),"7.94 µM [falling, full curve]"
13,Cc1csc(NC(=O)CSc2nc(C(C)C)nc3c2c(=O)n(C)c(=O)n3C)n1,"12.6 µM [falling, partial curve]"
14,COc1ccc(-n2c(C)cc(C(=O)CSc3nnc(-c4ccoc4C)n3C)c2C)cc1,"25.1 µM [falling, single point]"
15,CN(C)CCCN1c2ccccc2CCc2ccc(Cl)cc21,"39.8 µM [falling, single point]"
16,c1ccc2cc3[nH]c(CN4CCCCC4)nc3cc2c1,"15.8 µM [falling, partial curve]"
17,Cc1ccc(C(=O)Nc2ccc(-c3nc4ccccc4s3)cc2C)cc1C,"12.6 µM [rising, partial curve]"
18,C=CCn1c(SCc2cc(=O)n3ccsc3n2)nc2scc(C3CC3)c2c1=O,"12.6 µM [falling, partial curve]"
19,CCOc1cc(CNC(=O)NC2COc3ccc(OC)cc3C2)cc(OCC)c1OCC (stereo unspecified),"2.51 µM [falling, partial curve]"
20,COC(=O)c1ccccc1NC(=O)Nc1nnc(N2CCC(C)CC2)s1,"15.8 µM [falling, single point]"
21,Cc1csc2nc(COc3ccccc3NC(=O)c3ccc(C(C)(C)C)cc3)cc(=O)n12,"12.6 µM [falling, partial curve]"

# Quoted from the listing:
# Entry for CN(C)CCCN1c2ccccc2CCc2ccc(Cl)cc21 under AC50: 39.8 µM [falling, single point]
# Entry for Cc1cccc(N2CCN(c3cccc(C)c3)C2c2cccnc2)c1 under AC50: 10 µM [falling, partial curve]
# Entry for CCOC(=O)c1cc(C)n(CC2CCC(C(=O)Nc3ccc(C)c(F)c3)CC2)c1C (stereo unspecified) under AC50: 7.94 µM [falling, full curve]
# Entry for Cc1cc(NC(=O)c2c(F)c(F)c(F)c(F)c2F)no1 under AC50: 20 µM [falling, partial curve]
# Entry for CCn1cc(C(=O)N2CCN(c3ccc(C(C)=O)cc3)CC2)c2cc(OC)c(OC)cc2c1=O under AC50: 0.794 µM [rising, full curve, poor fit]

# The list goes on.

row,SMILES,AC50
1,CC(=O)C1=C(c2ccc(C)c(C)c2)N(C(C)=O)n2c(nnc2-c2ccc(Cl)cc2)S1,"6.31 µM [falling, full curve]"
2,O=C(Cn1c(=O)n(-c2ccccc2Cl)c(=O)c2sc3ccccc3c21)NC1CCCCC1,"20 µM [falling, single point]"
3,N#Cc1cccc(NC(=O)C2CCN(S(=O)(=O)c3ccc4[nH]c(=O)ccc4c3)CC2)c1,"20 µM [rising, single point]"
4,Cc1ccccc1-n1nc(CO)c(C(=O)NCc2cccs2)n1,"3.16 µM [rising, partial curve]"
5,CCn1c(SCC(=O)Nc2oc(-c3ccccc3)c(-c3ccccc3)c2C#N)nnc1-c1ccco1,"3.16 µM [falling, full curve, poor fit]"
6,Cc1ccccc1OC(=O)CSc1nnc(-c2ccc(F)cc2)o1,"39.8 µM [falling, single point]"
7,Cc1ccc(-c2cc(C(=O)Oc3ccccc3)c3cc(C)ccc3n2)cc1,"12.6 µM [falling, partial curve]"
8,Fc1ccc(CSc2nnc(-c3cnccn3)n2Cc2ccco2)cc1,"12.6 µM [falling, partial curve]"
9,Cc1ccc(Cn2nnc3c(=O)[nH]c(C4CCN(S(=O)(=O)c5cc(C)ccc5C)CC4)nc32)cc1,"15.8 µM [falling, partial curve]"
10,COc1ccc2nc(NC(=O)c3nc(S(=O)(=O)Cc4cccc(C)c4)ncc3Cl)sc2c1,"7.94 µM [falling, full curve]"
11,O=C1[C@@H]2C(Cc3ccc(O)cc3)NC3(C(=O)Nc4ccc(F)cc43)[C@@H]2C(=O)N1c1ccc(F)cc1 (stereo partly specified),"6.31 µM [falling, partial curve]"
12,CCOC(=O)Cn1nc(C)c(NC(=O)COc2ccc(Cl)cc2C)c1C,"12.6 µM [falling, partial curve]"
13,Cc1cccc2nc(-c3cccc(NS(=O)(=O)c4ccccc4)c3)cn12,"25.1 µM [falling, single point]"
14,Cc1ccc(C)c(CSc2nc3ccncc3n2CC(=O)Nc2ccc(N(C)C)cc2)c1,"7.94 µM [falling, partial curve]"
15,COC(=O)C1=C(CN2CCc3ccccc32)NC(=O)NC1c1cc(C)ccc1C (stereo unspecified),"25.1 µM [falling, single point]"
16,Cc1ccc(C)c(Cn2c3ccccc3c3cnn(CC(=O)NCc4ccccc4)c(=O)c32)c1,"39.8 µM [falling, single point]"
17,Cc1ccc(NC(=O)CSc2nc(-c3ccco3)nc3cc(=O)[nH]n23)cc1C,"15.8 µM [falling, partial curve]"
18,Fc1ccccc1Cn1c(-c2ccccc2)nc2ccccc21,"15.8 µM [falling, partial curve]"
19,Cc1ccnc(N2CCN(C(=O)CSc3nc4ccccc4nc3N3CCCCC3)CC2)c1,"3.98 µM [falling, partial curve]"
20,COc1cccc(N2CC(NC(=O)c3cccc(OC)c3OC)CC2=O)c1 (stereo unspecified),"20 µM [rising, partial curve]"
21,Cc1ccccc1OCc1nnc(SCc2cc(=O)c3cccc(F)c3[nH]2)n1C,"12.6 µM [falling, partial curve, poor fit]"

row,SMILES,AC50
1,CCn1cc(SCC(=O)NCc2ccc3c(c2)OCO3)c2ccccc21,"3.16 µM [falling, full curve]"
2,Cc1ccc(-n2nnc(C(=O)Nc3cc(F)ccc3F)c2C)cc1F,"10 µM [rising, partial curve]"
3,O=C(c1ccccc1)N1c2ncnn2C2(CCCCC2)[C@@H]2CCCC[C@@H]21,"12.6 µM [falling, partial curve]"
4,COc1ccccc1NC(=O)c1sc2nc3c(cc2c1N)CCCCCC3,"15.8 µM [falling, partial curve]"
5,Cc1ccc2c(c1)C(c1ccc(F)cc1)N(C(=O)c1ccc(OC(C)C)cc1)CC(=O)N2 (stereo unspecified),"25.1 µM [falling, partial curve]"
6,Cn1c(=O)[nH]c(=O)c2c1nc(N1CCNCC1)n2Cc1cccc2ccccc12,"25.1 µM [rising, partial curve] [measured here: IkB-luc green channel]"
7,Cc1c(NC(=O)c2ccco2)cccc1-c1nc2cccnc2s1,"15.8 µM [falling, partial curve]"
8,COc1cc2[nH]c(=O)n(CCCC(=O)N3CCN(c4cccc(C(F)(F)F)c4)CC3)c(=O)c2cc1OC,"15.8 µM [falling, partial curve]"
9,COc1ccccc1N1CCN(C(=O)CN2C(=O)COc3ccc(S(=O)(=O)N4CCC(C)CC4)cc32)CC1,"15.8 µM [falling, partial curve]"
10,COc1ccc(OCc2nnc(SCC(N)=O)n2-c2ccccc2OC)cc1,"12.6 µM [falling, partial curve]"
11,COc1ccc(C(=O)CSc2c(C(C)C)cnc3c2c(=O)n(C)c(=O)n3C)cc1,"39.8 µM [falling, single point]"
12,CCOc1ccc(NC(=O)CSc2nc3c(oc4ccccc43)c(=O)n2CCOC)cc1,"7.94 µM [rising, partial curve]"
13,Cn1ncc2nc(SCC(=O)Nc3ccc(Br)cc3F)n(Cc3ccccc3)c(=O)c21,"0.02 µM [falling, full curve, poor fit]"
14,Cc1ccc(NC(=O)C(Cc2c[nH]c3ccccc23)NC(=O)OCC(C)C)cc1 (stereo unspecified),"25.1 µM [falling, single point]"
15,CC(C)(C)C(=O)NCCc1csc2nc(-c3ccc(F)cc3)nn12,"0.0794 µM [falling, partial curve, poor fit]"
16,CCC(c1nnnn1Cc1ccco1)N(CCc1ccccc1)Cc1cc2cc(C)ccc2[nH]c1=O (stereo unspecified),"25.1 µM [falling, single point]"
17,COc1ccc2oc(-c3ccc(C)c(NC(=O)COc4cc(C)cc(C)c4)c3)nc2c1,"3.98 µM [falling, full curve]"
18,CCCOC(=O)c1ccc(Oc2cn[nH]c2-c2ccc(OCC)cc2O)cc1,"15.8 µM [falling, partial curve]"
19,NC(=NCc1ccc(Cl)c(Cl)c1)NC(=O)c1nc(Cl)c(N)nc1N,"31.6 µM [falling, partial curve, poor fit] [measured here: IkB-luc green channel]"
